Measurements: article PMC8651671

Target: T1, DhdR (GntR family regulator) (Achromobacter denitrificans NBRC 15125) (UniProt A0A6N0JVZ6)
T1 sequence (looked up, limits assumed): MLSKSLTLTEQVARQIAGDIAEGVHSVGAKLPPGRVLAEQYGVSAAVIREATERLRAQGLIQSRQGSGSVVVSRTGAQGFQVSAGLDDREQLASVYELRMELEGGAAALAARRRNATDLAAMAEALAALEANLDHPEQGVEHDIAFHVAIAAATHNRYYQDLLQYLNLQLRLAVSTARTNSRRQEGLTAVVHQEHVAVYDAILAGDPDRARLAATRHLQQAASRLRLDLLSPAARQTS
Assay: EMSA
Details: up to 100 nM DhdR; EMSA/footprint: 10 mM Tris-HCl pH 7.4, 50 mM KCl, 0.5 mM EDTA, 10% glycerol, 1 mM DTT, 30 C; recombinant protein; protein details: His6 (pETDuet-1); probe letters rebuilt from the primers and the genome

“CCATCCGGAACAGGGCGTCGAGCACGACATCGCCTTCCACGTCGCCATCGCCGCCGCCACGCACAACCGTTATTACCAGGACCTGCTGCAGTACCTGAACCTGCAGCTGCGCCTGGCCGTCAGCACCGCGCGCACCAACAGCCGCCGTCAGGAGGGCCTGACCGCGGTGGTGCACCAGGAACACGTGGCCGTCTACGACG (double strand) [internal fragment of dhdR (negative control)]”: no binding.

Construct, isoform or probe ends are uncertain for at least one entry. Negatives hold for the conditions tested. Tags and fusion partners may be left off the protein sequences shown.
